Values from PubChem BioAssay AID1224828 (NIAID, 2016)

Screen: 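Knock-downs that increase or decrease LPS-induced p65 nuclear translocation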 (primary screen)
Cells: mouse RAW264.7 G9 macrophage reporter cells (GFP-p65, Tnf promoter-mCherry)
Reagent: siRNA pool against mouse genes, 100 nM
Time to read-out: 2 days siRNA transfection, then 40 min LPS before fixation
Treatment: LPS (Salmonella minnesota R595) at 10 ng/ml
Measurement: 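Imaged p65 nuclear translocation ratio, normalised to the plate median, converted to robust z-scores and averaged across two replicates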
Scale: p65 translocation robust z-score: higher = more nuclear NF-kappaB p65 after LPS than the plate median; nuclear/cytoplasmic p65 ratio: higher = more nuclear NF-kappaB p65
Hit rule: 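Called active when z exceeds 3.3 or falls under -1.56 (median of Tlr4 controls), giving activity score of at least 50; no calls for control wells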
Meaning of the calls: active = hit (p65 shift raised or lowered); inactive = no clear change
In all, the deposit lists about 17,000 reagents; shown is an unselected part. Over the whole deposit, 762 (4.5%) are marked active. 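Active calls include both raised and lowered p65 entry, mostly lowered; wells with fewer than 50 cells lack a z-score.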 Raw values vary from plate to plate and are shown uncorrected.

p65 translocation robust z-score | nuclear/cytoplasmic p65 ratio, rep 1 | nuclear/cytoplasmic p65 ratio, rep 2 | low cell count flag | Outcome | target gene
-0.85 | 1.53 | 1.5 | enough cells to score | inactive | Adam26a
0.06 | 1.55 | 1.58 | enough cells to score | inactive | Sfrp1
1.83 | 2.09 | 1.86 | enough cells to score | inactive | Mrpl40
1.14 | 1.76 | 1.69 | enough cells to score | inactive | Dctn6
– | 1.4 | 1.27 | fewer than 50 cells per well; well left out of scoring | inactive | Serpinb12
– | 1.44 | 1.43 | fewer than 50 cells per well; well left out of scoring | inactive | F2rl3
-1.82 | 1.4 | 1.18 | enough cells to score | active | Eef2k
1.32 | 1.75 | 1.44 | enough cells to score | inactive | Fbln1
0.83 | 1.65 | 1.62 | enough cells to score | inactive | Rundc3a
0.52 | 1.66 | 1.74 | enough cells to score | inactive | Arhgef7
-0.02 | 1.63 | 1.42 | enough cells to score | inactive | Pdk4
-0.15 | 1.36 | 1.5 | enough cells to score | inactive | Nelfb
0.32 | 1.68 | 1.8 | enough cells to score | inactive | Gask1a
0.07 | 1.72 | 1.49 | enough cells to score | inactive | Hnrnpa2b1
– | 1.33 | 1.39 | fewer than 50 cells per well; well left out of scoring | inactive | Eif4e3
-0.59 | 1.34 | 1.22 | enough cells to score | inactive | Or10a2
0.13 | 1.33 | 1.51 | enough cells to score | inactive | Sgf29
1.12 | 1.74 | 1.97 | enough cells to score | inactive | Copz2
-1.12 | 1.56 | 1.35 | enough cells to score | inactive | Obox3
– | 1.46 | 1.25 | fewer than 50 cells per well; well left out of scoring | inactive | Dnah11
0.43 | 1.52 | 1.2 | enough cells to score | inactive | Prpf3
0.11 | 1.44 | 1.19 | enough cells to score | inactive | Pitpnb
-2.18 | 1.02 | 1.01 | enough cells to score | active | Mettl18
1.42 | 1.73 | 1.92 | enough cells to score | inactive | Cacnb4
0.82 | 1.61 | 1.47 | enough cells to score | inactive | Diaph1
-0.35 | 1.56 | 1.39 | enough cells to score | inactive | Mark2
1.4 | 1.91 | 1.61 | enough cells to score | inactive | Asb12
1.46 | 1.39 | 1.42 | enough cells to score | inactive | Abca12
-0.44 | 1.44 | 1.28 | enough cells to score | inactive | Extl3
– | 1.53 | 1.21 | fewer than 50 cells per well; well left out of scoring | inactive | Dmtf1
-0.97 | 1.3 | 1.28 | enough cells to score | inactive | Esrra
-0.53 | 1.64 | 1.21 | enough cells to score | inactive | Nup210
0.9 | 1.61 | 2.05 | enough cells to score | inactive | Clca3a2
0.28 | 1.55 | 1.38 | enough cells to score | inactive | Lamc3
-0.56 | 1.52 | 1.72 | enough cells to score | inactive | Uroc1
0.88 | 1.5 | 1.64 | enough cells to score | inactive | Zfp945
1.11 | 1.61 | 1.59 | enough cells to score | inactive | Klhdc8a
-1.05 | 1.33 | 1.29 | enough cells to score | inactive | Pthlh
– | 1.39 | 1.36 | fewer than 50 cells per well; well left out of scoring | inactive | Rcan3
0.76 | 1.72 | 1.94 | enough cells to score | inactive | Zfp772
-1.5 | 1.25 | 1.21 | enough cells to score | inactive | Itga10
-1.85 | 1.24 | 1.13 | enough cells to score | active | Fgb
1.47 | 1.68 | 1.55 | enough cells to score | inactive | Cd247
0.62 | 1.63 | 1.32 | enough cells to score | inactive | Zfp526
-0.53 | 1.45 | 1.49 | enough cells to score | inactive | Gpr183
0.4 | 1.67 | 1.68 | enough cells to score | inactive | Abtb1
1.32 | 1.48 | 1.64 | enough cells to score | inactive | 4933427E11Rik
0.27 | 1.62 | 1.7 | enough cells to score | inactive | Actn4
0.85 | 1.65 | 1.61 | enough cells to score | inactive | Or1s2
0.62 | 1.52 | 1.69 | enough cells to score | inactive | Tas2r131
-1.42 | 1.16 | 1.28 | enough cells to score | inactive | Hmx1
0.36 | 1.72 | 1.44 | enough cells to score | inactive | Ftl1
– | 1.35 | 1.13 | fewer than 50 cells per well; well left out of scoring | inactive | Or6c209
1.42 | 1.7 | 1.55 | enough cells to score | inactive | Nfx1
-0.81 | 1.4 | 1.25 | enough cells to score | inactive | Dtx1
– | 1.74 | 1.41 | fewer than 50 cells per well; well left out of scoring | inactive | Tk2
1.01 | 1.76 | 1.79 | enough cells to score | inactive | Lnpk
0.72 | 1.78 | 1.47 | enough cells to score | inactive | Or13p5
0.52 | 1.79 | 1.44 | enough cells to score | inactive | Cdk5rap3
-0.55 | 1.34 | 1.34 | enough cells to score | inactive | Txndc16
-1.16 | 1.37 | 1.4 | enough cells to score | inactive | Serpinb2
0.09 | 1.7 | 1.39 | enough cells to score | inactive | Prkacb
-0.34 | 1.66 | 1.36 | enough cells to score | inactive | Ankzf1
0.72 | 1.45 | 1.36 | enough cells to score | inactive | Retn
-0.88 | 1.63 | 1.37 | enough cells to score | inactive | Ly6c1
– | 1.67 | 1.04 | fewer than 50 cells per well; well left out of scoring | inactive | Smyd5
-0.05 | 1.41 | 1.38 | enough cells to score | inactive | Ifi35
0.16 | 1.54 | 1.55 | enough cells to score | inactive | Gdap2
-1.44 | 1.24 | 1.62 | enough cells to score | inactive | Ankrd9
-1.1 | 1.5 | 1.4 | enough cells to score | inactive | Hoxa6
2.3 | 1.94 | 1.73 | enough cells to score | inactive | Or1e32
-0.21 | 1.63 | 1.53 | enough cells to score | inactive | Aass
-1.01 | 1.38 | 1.54 | enough cells to score | inactive | Pkp2
1.35 | 1.62 | 1.88 | enough cells to score | inactive | Zbtb10
– | 1.13 | 1.21 | fewer than 50 cells per well; well left out of scoring | inactive | Fam220a
